The supplement of paper PMC10849652
The list shows a part of the results.

The chains behind the UniProt entries cited, without tags or fusion partners. Where a name states a change or a piece, a line headed by the entry shows the natural chain unless it says otherwise.
UniProt P56385: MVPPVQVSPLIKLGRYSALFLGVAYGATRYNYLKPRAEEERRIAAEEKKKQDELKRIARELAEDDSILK
UniProt P56378: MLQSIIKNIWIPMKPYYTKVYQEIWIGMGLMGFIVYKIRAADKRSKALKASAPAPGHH
UniProt Q2TAZ0: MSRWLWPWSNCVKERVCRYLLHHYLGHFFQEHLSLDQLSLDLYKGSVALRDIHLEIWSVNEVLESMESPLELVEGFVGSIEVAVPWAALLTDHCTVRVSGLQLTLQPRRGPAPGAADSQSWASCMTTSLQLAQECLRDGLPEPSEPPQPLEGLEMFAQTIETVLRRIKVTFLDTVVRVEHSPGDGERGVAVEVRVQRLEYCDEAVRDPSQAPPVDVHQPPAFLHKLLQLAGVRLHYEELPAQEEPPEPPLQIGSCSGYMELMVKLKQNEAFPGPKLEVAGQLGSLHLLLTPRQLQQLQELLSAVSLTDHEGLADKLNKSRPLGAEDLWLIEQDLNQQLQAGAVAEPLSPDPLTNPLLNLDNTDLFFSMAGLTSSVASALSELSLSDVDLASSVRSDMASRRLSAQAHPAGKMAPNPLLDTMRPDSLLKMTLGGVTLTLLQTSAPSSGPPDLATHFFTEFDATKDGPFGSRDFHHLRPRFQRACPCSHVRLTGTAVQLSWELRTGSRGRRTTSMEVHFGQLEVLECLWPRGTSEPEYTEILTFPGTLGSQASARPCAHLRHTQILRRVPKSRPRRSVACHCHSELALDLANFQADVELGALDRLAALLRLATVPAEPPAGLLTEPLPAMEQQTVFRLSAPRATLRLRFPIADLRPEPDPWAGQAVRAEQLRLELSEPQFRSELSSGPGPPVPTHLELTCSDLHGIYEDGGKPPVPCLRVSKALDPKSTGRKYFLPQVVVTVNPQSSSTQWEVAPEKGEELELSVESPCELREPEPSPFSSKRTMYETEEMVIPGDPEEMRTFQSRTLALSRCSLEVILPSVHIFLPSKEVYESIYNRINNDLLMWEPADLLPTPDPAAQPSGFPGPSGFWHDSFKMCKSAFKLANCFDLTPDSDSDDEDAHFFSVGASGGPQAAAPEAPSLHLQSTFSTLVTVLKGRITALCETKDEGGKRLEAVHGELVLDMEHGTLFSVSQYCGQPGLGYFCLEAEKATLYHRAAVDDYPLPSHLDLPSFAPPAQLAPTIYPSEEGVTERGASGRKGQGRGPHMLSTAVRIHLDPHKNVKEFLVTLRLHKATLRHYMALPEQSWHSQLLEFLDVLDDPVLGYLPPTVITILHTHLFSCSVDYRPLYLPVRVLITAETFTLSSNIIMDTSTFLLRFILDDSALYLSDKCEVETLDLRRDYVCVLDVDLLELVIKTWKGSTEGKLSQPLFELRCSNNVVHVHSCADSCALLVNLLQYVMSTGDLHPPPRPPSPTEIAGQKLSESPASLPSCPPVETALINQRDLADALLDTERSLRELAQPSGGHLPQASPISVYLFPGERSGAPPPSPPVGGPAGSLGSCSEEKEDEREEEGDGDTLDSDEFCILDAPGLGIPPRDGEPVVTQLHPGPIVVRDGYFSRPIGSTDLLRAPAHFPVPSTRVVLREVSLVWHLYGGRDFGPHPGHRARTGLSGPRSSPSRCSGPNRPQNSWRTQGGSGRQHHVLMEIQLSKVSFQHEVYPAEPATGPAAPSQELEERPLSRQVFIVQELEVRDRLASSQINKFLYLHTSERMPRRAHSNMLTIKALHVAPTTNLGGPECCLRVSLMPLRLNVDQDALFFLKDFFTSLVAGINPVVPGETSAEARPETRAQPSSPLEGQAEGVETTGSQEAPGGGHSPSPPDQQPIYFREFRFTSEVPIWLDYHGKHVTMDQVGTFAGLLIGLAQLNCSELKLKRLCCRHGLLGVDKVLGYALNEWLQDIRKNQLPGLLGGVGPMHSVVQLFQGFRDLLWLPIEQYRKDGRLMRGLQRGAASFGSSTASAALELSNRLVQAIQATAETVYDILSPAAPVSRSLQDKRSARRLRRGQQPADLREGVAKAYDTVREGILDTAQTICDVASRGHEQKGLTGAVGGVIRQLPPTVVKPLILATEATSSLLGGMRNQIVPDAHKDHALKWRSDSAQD
UniProt P18859: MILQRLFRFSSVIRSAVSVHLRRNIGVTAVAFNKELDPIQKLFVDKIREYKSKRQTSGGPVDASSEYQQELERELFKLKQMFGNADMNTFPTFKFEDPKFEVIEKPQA
UniProt Q9HD20: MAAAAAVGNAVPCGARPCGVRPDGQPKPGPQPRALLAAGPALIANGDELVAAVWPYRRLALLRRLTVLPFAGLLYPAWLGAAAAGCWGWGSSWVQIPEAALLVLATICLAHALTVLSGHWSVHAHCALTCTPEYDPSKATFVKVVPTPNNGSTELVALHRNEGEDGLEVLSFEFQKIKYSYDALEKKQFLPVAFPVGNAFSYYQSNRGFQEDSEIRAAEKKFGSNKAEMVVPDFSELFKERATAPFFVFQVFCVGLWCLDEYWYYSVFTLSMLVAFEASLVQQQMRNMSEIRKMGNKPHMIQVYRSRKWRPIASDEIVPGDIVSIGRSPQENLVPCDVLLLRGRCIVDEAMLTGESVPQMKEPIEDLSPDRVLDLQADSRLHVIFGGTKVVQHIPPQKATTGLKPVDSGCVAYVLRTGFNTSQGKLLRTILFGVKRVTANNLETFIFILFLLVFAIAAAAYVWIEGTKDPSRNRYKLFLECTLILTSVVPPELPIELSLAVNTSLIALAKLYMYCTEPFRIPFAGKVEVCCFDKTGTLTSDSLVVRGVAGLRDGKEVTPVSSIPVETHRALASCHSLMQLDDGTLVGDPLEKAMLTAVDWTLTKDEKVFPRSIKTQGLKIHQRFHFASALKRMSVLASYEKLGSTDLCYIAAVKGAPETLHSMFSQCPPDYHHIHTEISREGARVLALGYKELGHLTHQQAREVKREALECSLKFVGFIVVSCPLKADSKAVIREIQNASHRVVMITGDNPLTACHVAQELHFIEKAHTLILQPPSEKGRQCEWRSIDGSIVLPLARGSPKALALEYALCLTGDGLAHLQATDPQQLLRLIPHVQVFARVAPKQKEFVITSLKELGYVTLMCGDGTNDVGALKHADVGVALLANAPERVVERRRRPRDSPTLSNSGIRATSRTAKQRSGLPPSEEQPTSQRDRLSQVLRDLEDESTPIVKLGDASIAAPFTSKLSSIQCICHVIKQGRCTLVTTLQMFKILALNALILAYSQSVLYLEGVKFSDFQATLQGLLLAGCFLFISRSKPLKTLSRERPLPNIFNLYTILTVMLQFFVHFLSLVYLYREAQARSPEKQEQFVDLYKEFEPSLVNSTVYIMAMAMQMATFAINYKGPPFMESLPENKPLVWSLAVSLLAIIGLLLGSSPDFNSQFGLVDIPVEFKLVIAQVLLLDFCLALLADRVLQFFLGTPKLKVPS
UniProt Q00973: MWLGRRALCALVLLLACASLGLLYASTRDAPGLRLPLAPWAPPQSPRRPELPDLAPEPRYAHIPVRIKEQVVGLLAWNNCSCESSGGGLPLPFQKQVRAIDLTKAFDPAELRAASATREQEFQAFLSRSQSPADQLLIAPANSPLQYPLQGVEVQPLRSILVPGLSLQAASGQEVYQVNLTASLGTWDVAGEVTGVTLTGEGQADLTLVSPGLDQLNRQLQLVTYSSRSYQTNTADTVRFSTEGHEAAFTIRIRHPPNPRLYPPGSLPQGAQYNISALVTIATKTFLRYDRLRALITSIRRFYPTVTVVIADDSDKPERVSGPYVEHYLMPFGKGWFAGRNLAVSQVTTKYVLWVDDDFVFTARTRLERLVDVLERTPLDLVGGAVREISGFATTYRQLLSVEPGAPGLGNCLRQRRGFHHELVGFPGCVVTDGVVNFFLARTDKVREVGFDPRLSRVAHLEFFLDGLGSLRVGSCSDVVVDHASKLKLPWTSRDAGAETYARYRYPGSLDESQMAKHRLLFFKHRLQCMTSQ
UniProt P14415, whole entry, looked up: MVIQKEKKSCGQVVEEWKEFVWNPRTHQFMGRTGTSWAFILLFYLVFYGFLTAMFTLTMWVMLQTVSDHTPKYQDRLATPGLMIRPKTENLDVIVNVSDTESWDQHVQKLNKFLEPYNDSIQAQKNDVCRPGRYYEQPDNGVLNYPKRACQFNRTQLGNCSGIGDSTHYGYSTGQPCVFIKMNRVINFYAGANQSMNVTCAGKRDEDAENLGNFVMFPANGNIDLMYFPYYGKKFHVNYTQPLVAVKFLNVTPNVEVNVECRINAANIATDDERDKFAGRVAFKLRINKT
UniProt B2RBV5: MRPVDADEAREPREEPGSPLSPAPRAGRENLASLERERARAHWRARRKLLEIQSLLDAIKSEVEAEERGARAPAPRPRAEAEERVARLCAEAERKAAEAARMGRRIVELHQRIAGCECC
UniProt O95260: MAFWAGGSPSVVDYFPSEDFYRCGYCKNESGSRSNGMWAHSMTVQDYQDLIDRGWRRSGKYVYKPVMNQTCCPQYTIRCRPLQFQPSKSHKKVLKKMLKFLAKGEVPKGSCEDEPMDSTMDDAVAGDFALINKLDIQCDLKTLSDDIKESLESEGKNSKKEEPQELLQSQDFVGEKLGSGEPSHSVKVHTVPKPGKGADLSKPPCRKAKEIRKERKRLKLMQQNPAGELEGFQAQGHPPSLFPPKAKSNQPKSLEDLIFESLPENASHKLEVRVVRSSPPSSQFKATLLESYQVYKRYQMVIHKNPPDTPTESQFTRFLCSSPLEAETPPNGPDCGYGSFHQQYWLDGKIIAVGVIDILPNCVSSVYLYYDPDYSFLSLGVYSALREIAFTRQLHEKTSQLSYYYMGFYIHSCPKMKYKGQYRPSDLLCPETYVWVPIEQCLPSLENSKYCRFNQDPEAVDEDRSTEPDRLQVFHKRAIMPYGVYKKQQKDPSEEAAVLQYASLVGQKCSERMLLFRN
UniProt O14965: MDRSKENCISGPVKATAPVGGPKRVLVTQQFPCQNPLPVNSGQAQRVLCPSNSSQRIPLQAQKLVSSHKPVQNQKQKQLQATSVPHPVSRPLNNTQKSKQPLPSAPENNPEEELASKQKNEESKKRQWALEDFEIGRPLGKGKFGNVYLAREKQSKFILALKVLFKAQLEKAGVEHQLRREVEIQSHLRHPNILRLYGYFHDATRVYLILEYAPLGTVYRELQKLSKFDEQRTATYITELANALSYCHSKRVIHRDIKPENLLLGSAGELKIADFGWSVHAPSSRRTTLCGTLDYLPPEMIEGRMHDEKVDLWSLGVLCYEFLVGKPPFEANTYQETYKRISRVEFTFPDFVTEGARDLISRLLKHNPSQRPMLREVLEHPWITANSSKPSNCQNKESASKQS
UniProt Q8NB49: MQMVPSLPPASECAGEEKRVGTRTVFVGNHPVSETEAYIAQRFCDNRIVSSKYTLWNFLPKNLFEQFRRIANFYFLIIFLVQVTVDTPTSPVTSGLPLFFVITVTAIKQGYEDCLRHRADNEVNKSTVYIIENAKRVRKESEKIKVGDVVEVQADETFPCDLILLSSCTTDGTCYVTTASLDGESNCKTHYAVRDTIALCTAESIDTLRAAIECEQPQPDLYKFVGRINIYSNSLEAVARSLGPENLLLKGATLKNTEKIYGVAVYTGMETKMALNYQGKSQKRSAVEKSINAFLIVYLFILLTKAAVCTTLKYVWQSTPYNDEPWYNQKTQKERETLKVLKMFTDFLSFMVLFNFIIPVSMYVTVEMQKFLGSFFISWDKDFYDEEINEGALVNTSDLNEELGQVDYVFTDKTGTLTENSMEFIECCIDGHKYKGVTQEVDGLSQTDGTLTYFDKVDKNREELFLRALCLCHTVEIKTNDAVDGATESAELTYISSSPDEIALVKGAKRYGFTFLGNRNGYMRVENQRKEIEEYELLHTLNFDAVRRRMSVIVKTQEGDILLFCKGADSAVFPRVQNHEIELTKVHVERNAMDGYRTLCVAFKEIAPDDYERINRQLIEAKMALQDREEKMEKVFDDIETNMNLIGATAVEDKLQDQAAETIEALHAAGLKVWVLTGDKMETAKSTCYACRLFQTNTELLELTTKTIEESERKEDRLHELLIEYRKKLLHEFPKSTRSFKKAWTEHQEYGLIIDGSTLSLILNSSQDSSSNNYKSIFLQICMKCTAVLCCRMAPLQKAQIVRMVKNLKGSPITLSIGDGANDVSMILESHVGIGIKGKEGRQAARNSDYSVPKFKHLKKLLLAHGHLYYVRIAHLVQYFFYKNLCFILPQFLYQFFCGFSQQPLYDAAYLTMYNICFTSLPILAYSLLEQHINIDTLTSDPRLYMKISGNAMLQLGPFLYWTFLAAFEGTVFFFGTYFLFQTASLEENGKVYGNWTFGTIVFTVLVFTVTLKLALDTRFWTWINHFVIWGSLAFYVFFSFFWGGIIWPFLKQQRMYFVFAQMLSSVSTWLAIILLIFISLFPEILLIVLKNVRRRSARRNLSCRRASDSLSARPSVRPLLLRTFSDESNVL
UniProt P27449, whole entry, looked up: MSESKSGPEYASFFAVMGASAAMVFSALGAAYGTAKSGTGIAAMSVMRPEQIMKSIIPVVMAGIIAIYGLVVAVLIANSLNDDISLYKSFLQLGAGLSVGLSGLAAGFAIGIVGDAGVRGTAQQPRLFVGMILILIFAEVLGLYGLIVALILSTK

Compound: NC(=O)c1cnc(N[C@@H]2CCCC[C@@H]2N)nc1Nc1cccc(-n2nccn2)c1
Experiment: log2 fold change, soluble protein after heating vs DMSO (PISA); higher = thermal stabilisation; K562 lysate, 10 uM; active = over 0.2 and 3.5 SD of the protein, either way, in both replicates (recomputed)
Method in brief: (§1)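 K562 pellets were dounce-homogenised in PBS pH 7.4 with 1 mM MgCl2, and the crude extract at 1 mg/mL protein was treated with 10 μM compound for 30 min. Aliquots were heated for 3 min across 48°C-58°C, pooled, and brought to 0.5% NP-40 at 4°C; soluble protein was the supernatant after 21,000xg for 90 min. Soluble protein was quantified by TMTpro 16plex LC-MS/MS with channel sums equalised, and reported as log2 fold change in thermal stability against DMSO controls, with values from duplicates.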

log2 fold change, inactive:
ATP5F1B (UniProt H0YI37) 0.337
AVL9 (UniProt Q8NBF6) -0.012
ATF7IP2 (UniProt Q5U623) 0.036
ATP5ME (UniProt P56385) -0.022
ATP11C, A0A067XG54 -0.057
ATP5MPL (UniProt P56378) -0.027
ATG2A (UniProt Q2TAZ0) -0.009
ATP5PF isoform 2 (UniProt P18859) -0.029
ATM (UniProt Q13315) 0.039
ATP13A1 (UniProt Q9HD20) 0.07
ATP5F1B (UniProt F8W079) -0.101
B3GNT5 (UniProt Q9BYG0) 0.072
ATRN (UniProt O75882) -0.121
B3GNTL1 (UniProt Q67FW5) 0.041
ATP1B1 (UniProt P05026) -0.059
B4GALNT1 (UniProt Q00973) 0.158
ATP1B2 (UniProt P14415) -0.04
ATXN7L3 isoform 2 (UniProt Q14CW9) 0.047
AUH (UniProt Q13825) 0.193
NA (UniProt B2RBV5) -0.182
ATG16L1 (UniProt Q676U5) -0.002
ATE1 isoform 2 (UniProt O95260) -0.002
ASXL2 (UniProt Q76L83) -0.001
AURKA (UniProt O14965) -0.04
ATXN2 (UniProt F8WB05) 0.025
ATP6V0A1 (UniProt Q93050) -0.114
ATP1A1 (UniProt P05023) -0.004
ATP11C (UniProt Q8NB49) 0.016
ATP6V0C (UniProt P27449) -0.069
ATAD3B (UniProt Q5T9A4) -0.006
ATE1 (UniProt O95260) 0.026
ATP6V1A (UniProt P38606) 0.001
ATP6AP1 (UniProt Q15904) 0.02

Compound: NC1(c2ccc(-c3nc4ccn5c(=O)[nH]nc5c4cc3-c3ccccc3)cc2)CCC1
Experiment: as above
Method in brief: as §1

log2 fold change, inactive:
ATP5F1B (UniProt H0YI37) -0.672
AVL9 (UniProt Q8NBF6) -0.002
ATF7IP2 (UniProt Q5U623) -0.127
ATP5ME (UniProt P56385) -0.019
ATP11C, A0A067XG54 0.011
ATP5MPL (UniProt P56378) -0.007
ATG2A (UniProt Q2TAZ0) -0.08
ATP5PF isoform 2 (UniProt P18859) -0.051
ATM (UniProt Q13315) 0.008
ATP13A1 (UniProt Q9HD20) 0.065
B3GNT5 (UniProt Q9BYG0) -0.081
ATRN (UniProt O75882) -0.064
ATP1B1 (UniProt P05026) 0.055
B4GALNT1 (UniProt Q00973) 0.03
ATP1B2 (UniProt P14415) -0.027
ATXN7L3 isoform 2 (UniProt Q14CW9) 0.048
AUH (UniProt Q13825) -0.066
NA (UniProt B2RBV5) 0.014
ATG16L1 (UniProt Q676U5) 0.02
ATE1 isoform 2 (UniProt O95260) 0.014
ASXL2 (UniProt Q76L83) -0.354
AURKA (UniProt O14965) -0.05
ATXN2 (UniProt F8WB05) -0.394
ATP6V0A1 (UniProt Q93050) -0.221
ATP1A1 (UniProt P05023) -0.009
ATP11C (UniProt Q8NB49) -0.051
ATP6V0C (UniProt P27449) 0.039
ATAD3B (UniProt Q5T9A4) 0.006
ATP6V1A (UniProt P38606) 0.026
ATP6AP1 (UniProt Q15904) -0.036
